Taken from: PubChem BioAssay AID1259254 (NCATS, 2017)
Screen: 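Gene knock-downs that lead to re-replication, shown by excess G2 DNA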 (primary screen). Cell system: human HCT116 colorectal cancer cells. Knock-down reagent: single siRNA against human genes. Timing: 3 days. Read-out: 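Imaged Hoechst DNA stain sorts each cell into a cycle phase by DNA amount; per plate, G2 fraction set to 0% for non-targeting and 100% for GMNN siRNA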. Direction: G2 robust z-score: higher = more G2 cells, more excess DNA replication. Rule for the call: 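An siRNA counts as active if its G2 robust z-score lies at least 5 MADs above the screen median; here such calls match roughly 38% of GMNN control or more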.
In all, the deposit lists about 59,000 reagents; below is a part drawn at random. Of all reagents, about 1,550 (2.6%) are marked active. 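G2 share is only a proxy for re-replication; each gene was hit by three separate siRNAs, and active genes were retested.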 The numbers tell different reagents against one gene apart. Not all columns of the deposit are shown. Not stated in the record: the amount of reagent.

| target gene | reagent no. | G2 robust z-score | call |
| --- | --- | --- | --- |
| CNNM3 | 1 | -0.729 | inactive |
| CNNM3 | 2 | 1.16 | inactive |
| CNNM3 | 3 | 0.511 | inactive |
| KIF26A | 1 | -1.11 | inactive |
| KIF26A | 2 | -1.09 | inactive |
| KIF26A | 3 | -0.151 | inactive |
| SLC14A1 | 1 | 0.365 | inactive |
| SLC14A1 | 2 | 5.19 | active |
| SLC14A1 | 3 | 3.56 | inactive |
| NBPF7P | 1 | 0.241 | inactive |
| NBPF7P | 2 | 2.75 | inactive |
| NBPF7P | 3 | 2.13 | inactive |
| CBX4 | 1 | -0.458 | inactive |
| CBX4 | 2 | -0.121 | inactive |
| CBX4 | 3 | 0.495 | inactive |
| LMX1A | 1 | 0.759 | inactive |
| LMX1A | 2 | 2.99 | inactive |
| LMX1A | 3 | -1 | inactive |
| SBF2-AS1 | 1 | -0.863 | inactive |
| SBF2-AS1 | 2 | -0.73 | inactive |
| SBF2-AS1 | 3 | 0.32 | inactive |
| TMEM69 | 1 | -0.652 | inactive |
| TMEM69 | 2 | 1.89 | inactive |
| TMEM69 | 3 | 0.906 | inactive |
| WHR1 | 1 | -1.29 | inactive |
| WHR1 | 2 | -0.0796 | inactive |
| WHR1 | 3 | -1.14 | inactive |
| DDX1 | 1 | 1.32 | inactive |
| DDX1 | 2 | 1.13 | inactive |
| DDX1 | 3 | -1.02 | inactive |

Active calls, among the entries above:
| target gene | reagent no. | G2 robust z-score | call |
| --- | --- | --- | --- |
| SLC14A1 | 2 | 5.19 | active |

Next reagents:
| target gene | reagent no. | G2 robust z-score | call |
| --- | --- | --- | --- |
| GARIN4 | 1 | 0.429 | inactive |
| GARIN4 | 2 | 1.21 | inactive |
| GARIN4 | 3 | 0.41 | inactive |
| PPIF | 1 | -0.463 | inactive |
| PPIF | 2 | -0.727 | inactive |
| PPIF | 3 | -0.768 | inactive |
| CALN1 | 1 | 0.502 | inactive |
| CALN1 | 2 | -1.58 | inactive |
| CALN1 | 3 | 5.8 | active |
| SELENOI | 1 | -0.763 | inactive |
| SELENOI | 2 | -0.455 | inactive |
| SELENOI | 3 | 1.64 | inactive |
| B3GNT7 | 1 | 0.207 | inactive |
| B3GNT7 | 2 | -0.637 | inactive |
| B3GNT7 | 3 | -0.321 | inactive |
| STIP1 | 1 | -1.43 | inactive |
| STIP1 | 2 | 1.63 | inactive |
| STIP1 | 3 | -1.01 | inactive |
| HSD3B1 | 1 | -0.186 | inactive |
| HSD3B1 | 2 | 1.96 | inactive |
| HSD3B1 | 3 | 2.58 | inactive |
| FIGN | 1 | -1.43 | inactive |
| FIGN | 2 | 2.84 | inactive |
| FIGN | 3 | -0.253 | inactive |
| TSPAN33 | 1 | -0.717 | inactive |
| TSPAN33 | 2 | 1.35 | inactive |
| TSPAN33 | 3 | 2.05 | inactive |
| EHD2 | 1 | 1.26 | inactive |
| EHD2 | 2 | -0.28 | inactive |
| EHD2 | 3 | -0.204 | inactive |
| ACP3 | 1 | 0.289 | inactive |
| ACP3 | 2 | 2.12 | inactive |
| ACP3 | 3 | 2.05 | inactive |
| CORO2A | 1 | -0.548 | inactive |
| CORO2A | 2 | -1.27 | inactive |
| CORO2A | 3 | -0.604 | inactive |
| HLA-DRA | 1 | -0.642 | inactive |
| HLA-DRA | 2 | 3.27 | inactive |
| HLA-DRA | 3 | -0.664 | inactive |
